In US20140056866A1, “USE OF BIOLOGICAL OR CHEMICAL CONTROL AGENTS FOR CONTROLLING INSECTS AND NEMATODES IN RESISTANT CROPS” (priority 2010, published 2014):

Test system: Z. Mays
Assay: Corn plant emergence after clothianidin seed treatment (Example 3)
Format: in vivo, Zea Mays

Structure (SMILES): CN/C(=N\[N+](=O)[O-])NCc1cnc(Cl)s1 [clothianidin]
- Plant Emergence, Emerged (Jul. 1, 2011, CTD 0.125 mg ai/seed): 43%
- Plant Emergence, Emerged (Jul. 1, 2011, CTD 0.25 mg ai/seed): 43%
- Plant Emergence, Emerged (Jul. 1, 2011, CTD 0.5 mg ai/seed): 33%
- Plant Emergence, Emerged (Jul. 7, 2011, CTD 0.125 mg ai/seed): 43%
- Plant Emergence, Emerged (Jul. 7, 2011, CTD 0.25 mg ai/seed): 43%
- Plant Emergence, Emerged (Jul. 7, 2011, CTD 0.5 mg ai/seed): 33%
- Plant Emergence, Emerged (Jun. 28, 2011, CTD 0.125 mg ai/seed): 43%
- Plant Emergence, Emerged (Jun. 28, 2011, CTD 0.25 mg ai/seed): 40%
- Plant Emergence, Emerged (Jun. 28, 2011, CTD 0.5 mg ai/seed): 33%
